PubChem BioAssay AID1259308, NCATS | 2017
Test: 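Knock-downs that increase output of a recombinant reporter protein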 (primary screen). System: human HEK293 embryonic kidney cells stably expressing firefly luciferase (HEK-CMV-Luc2-Hygro). Reagents: single siRNA against human genes, 0.8 pmol siRNA per well. Timing: 72 h. Measured: 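Reporter luminescence and viable-cell signal on separate replicate plates, given as percent of non-targeting control and median/MAD z-scores, plus per-cell luciferase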. Scale: total luciferase, z-score: higher = more reporter protein produced. Active means: 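Active when the median/MAD z-score for overall luciferase is greater than 3; a gene was taken forward for validation with new siRNAs if at least two of its three siRNAs passed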. Calls: active = raised luciferase; inactive = no rise.
Here is an unselected part of about 59,000 reagents. Of all reagents, about 1,510 (2.6%) were called active. 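Calls use total luciferase alone and ignore viability, so some active siRNAs may act by altering cell number.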 A number with no mark means an inactive call. The numbers tell different reagents against one gene apart. Not all columns of the deposit are shown. No sequences are given here.

no.	gene knocked down	reagent no.	total luciferase, z-score
1	TAF7 (GeneID 6879)	1	1.5
2	TAF7 (GeneID 6879)	2	0.825
3	TAF7 (GeneID 6879)	3	0.799
4	UBQLN2 (GeneID 29978)	1	0.963
5	UBQLN2 (GeneID 29978)	2	0.694
6	UBQLN2 (GeneID 29978)	3	-0.758
7	ST3GAL2 (GeneID 6483)	1	-1.79
8	ST3GAL2 (GeneID 6483)	2	-0.966
9	ST3GAL2 (GeneID 6483)	3	0.244
10	FASLG (GeneID 356)	1	-0.823
11	FASLG (GeneID 356)	2	1.36
12	FASLG (GeneID 356)	3	-0.317
13	ASB10 (GeneID 136371)	1	0.657
14	ASB10 (GeneID 136371)	2	-1.22
15	ASB10 (GeneID 136371)	3	1.03

3 entries from above, arranged by “total luciferase, z-score”, descending:
gene knocked down	reagent no.	total luciferase, z-score
ASB10 (GeneID 136371)	3	1.03
ASB10 (GeneID 136371)	1	0.657
ASB10 (GeneID 136371)	2	-1.22

Further reagents follow.
no.	gene knocked down	reagent no.	total luciferase, z-score
16	MSLN (GeneID 10232)	1	0.514
17	MSLN (GeneID 10232)	2	-0.786
18	MSLN (GeneID 10232)	3	-0.872
19	NAT16 (GeneID 375607)	1	-1.64
20	NAT16 (GeneID 375607)	2	0.255
21	NAT16 (GeneID 375607)	3	-0.24
22	OSTCP3 (GeneID 646557)	1	-0.9
23	OSTCP3 (GeneID 646557)	2	-0.627
24	OSTCP3 (GeneID 646557)	3	0.201
